Experimental data reported in PubChem BioAssay AID256 (DTP/NCI, 2004).
The list is a part of this screen's results and no random one: it is rich in T/C values a quarter to a half above the control, in often repeated tests (any T/C) and in doses without a T/C. Further doses and runs are listed elsewhere. T/C is the treated group as % of the vehicle group. Some doses have a count of surviving animals in place of a T/C: the source holds a T/C of zero for them, seemingly a mark for toxic or unscored doses. Some doses without a T/C left all or most animals alive at the check, yet need not have been tolerated: the source hardly ever lists a survival T/C far under the control, and the zero likely stands for such cases as well. Survivors were counted at the toxicity check, usually on the fifth day, unless a day is given; later deaths do not show. Schedules are NCI's codes, taken here to give the interval after Q, in days (D) or hours (H), and the number of doses after X. Some doses were run more than once; their values stand side by side, smallest first. Where survival is the endpoint, the PubChem record calls one and a half times the control and up active, and a quarter to a half above the control has no call in these data; cut-offs in other NCI protocols can differ. Some T/C values carry the count of animals alive at the toxicity check (mostly the fifth day); where none is given, no animal had died by that day.

Tested on: CD2F1 mice, L1210 leukemia ip, survival T/C
Assay: NCI In Vivo Anticancer Drug Screen. Data for tumor model L1210 Leukemia (intraperitoneal) in CD2F1 (CDF1) mice
Conditions: higher T/C = longer survival
Outline: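 Implant tumor; dose compound or vehicle; measure endpoint in both groups; report treated divided by control.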

[1] = T/C endpoint: mean survival time, dose: 300.0 mg/kg/injection, schedule: Q01DX001 (ip), vehicle: saline
[2] = T/C endpoint: mean survival time, dose: 200.0 mg/kg/injection, schedule: Q04DX002 (ip), vehicle: saline
[3] = T/C endpoint: mean survival time, dose: 100.0 mg/kg/injection, schedule: Q04DX003 (ip), vehicle: saline with Tween-80
[4] = T/C endpoint: mean survival time, dose: 200.0 mg/kg/injection, schedule: Q04DX003 (ip), vehicle: saline with Tween-80
[5] = T/C endpoint: mean survival time, dose: 400.0 mg/kg/injection, schedule: Q01DX009 (ip), vehicle: saline with Tween-80
[6] = T/C endpoint: mean survival time, dose: 400.0 mg/kg/injection, schedule: Q01DX001 (ip), vehicle: saline
[7] = T/C endpoint: mean survival time, dose: 400.0 mg/kg/injection, schedule: Q04DX003 (ip), vehicle: saline with Tween-80

For `CCCCCCC[CH2][Sn]1([CH2]CCCCCCC)[O]OC(c2ccccc2)[O]1` (stereo unspecified), the survivor count (T/C endpoint: mean survival time, dose: 25.0 mg/kg/injection, schedule: Q04DX002 (ip), vehicle: saline with Tween-80) was 3 of 3 and the survivor count (T/C endpoint: mean survival time, dose: 100.0 mg/kg/injection, schedule: Q04DX002 (ip), vehicle: saline with Tween-80) was 0 of 3.
In the case of `Nc1nc(F)nc2c1ncn2C1CC(O)C(CO)O1` (stereo unspecified), the survivor count [1] is reported as 1 of 6.
In the case of `O=[N+]([O-])O.[Zn+2].c1ccncc1`, the survivor count (T/C endpoint: mean survival time, dose: 150.0 mg/kg/injection, schedule: Q01DX001 (ip), vehicle: saline) is reported as 0 of 6 and the survivor count [1] is reported as 0 of 6.
For `CCCCCCC(O)C/C=C\CCCCCCCC(=O)O` (stereo unspecified), the survivor count [2] was 0 of 3.
With `[Cl-].[NH-]CCN(CC[NH-])CCN.[O-][Cl+3]([O-])([O-])O.[O-][Cl+3]([O-])([O-])O.[Pt+2]` the survivor count (T/C endpoint: mean survival time, dose: 25.0 mg/kg/injection, schedule: Q04DX003 (ip), vehicle: saline with Tween-80) was 6 of 6, the survivor count (T/C endpoint: mean survival time, dose: 50.0 mg/kg/injection, schedule: Q04DX003 (ip), vehicle: saline with Tween-80) was 0 of 6 and the survivor count [3] was 0 of 6. The survivor count [4] was 0 of 6.
With `CCO/C=C1\SC(=S)N(c2ccccc2C)C1=O` the survivor count [5] was 4 of 6.
`[I-].[Ni+2].[O-]/N=C/c1ccccn1.[O-]/N=C/c1ccccn1.[O-]/N=C/c1ccccn1` was tested, and the survivor count (T/C endpoint: mean survival time, dose: 200.0 mg/kg/injection, schedule: Q01DX001 (ip), vehicle: saline) was 3 of 6 and the survivor count [6] was 0 of 6.
With `O=C(SC1=NCCN1)c1ccccc1` the survivor count [6] was 6 of 6.
For `O=C1NC(=O)C(c2ccccc2)(C2CCC2)N1` (stereo unspecified), the survivor count [4] was 6 of 6.
For `CC(=O)NNC(=O)c1ccccc1N=NN(C)C`, the T/C (T/C endpoint: mean survival time, dose: 75.0 mg/kg/injection, schedule: Q01DX009 (ip), vehicle: Klucel (hydroxypropylcellulose) (HPC)) was 126 % of control and the survivor count (T/C endpoint: mean survival time, dose: 300.0 mg/kg/injection, schedule: Q01DX009 (ip), vehicle: Klucel (hydroxypropylcellulose) (HPC)) was 0 of 6 and 1 of 6.
`O=C(NCCNC(=O)c1ccccc1)c1ccccc1` was tested, and the survivor count (T/C endpoint: median survival time, dose: 100.0 mg/kg/injection, schedule: Q04DX002 (ip), vehicle: saline with Tween-80) was 3 of 3, the survivor count (T/C endpoint: median survival time, dose: 200.0 mg/kg/injection, schedule: Q04DX002 (ip), vehicle: saline with Tween-80) was 3 of 3 and the survivor count (T/C endpoint: median survival time, dose: 400.0 mg/kg/injection, schedule: Q04DX002 (ip), vehicle: saline with Tween-80) was 3 of 3.
For `CC1=C(C)CC(C(Cl)(Cl)Cl)C([N+](=O)[O-])C1` (stereo unspecified), the survivor count [7] was 5 of 6.
For `CC[N+](CC)=c1ccc2nc3c(cc(N)c4ccccc43)oc-2c1`, the survivor count (T/C endpoint: mean survival time, dose: 25.0 mg/kg/injection, schedule: Q01DX009 (ip), vehicle: saline sonified) was 2 of 6, the survivor count [3] was 0 of 6 and the survivor count [4] was 0 of 6. The survivor count [7] was 0 of 6.
For `[Cl][Gd]([Cl])[Cl]`, the survivor count [5] was 4 of 6.
With `CN(C)[C@@H]1C(=O)C(C(=O)NCNC(CO)(CO)CO)=C(O)[C@@]2(O)C(=O)C3=C(O)c4c(O)cccc4[C@@](C)(O)[C@H]3C[C@@H]12` the survivor count (T/C endpoint: mean survival time, dose: 132.0 mg/kg/injection, schedule: Q01DX009 (ip), vehicle: saline) was 6 of 6.
`CCOC(=O)c1ccc(NC(=O)Nc2nncs2)cc1` was tested, and the survivor count (T/C endpoint: mean survival time, dose: 200.0 mg/kg/injection, schedule: Q01DX009 (ip), vehicle: distilled water + Tween-80) was 4 of 6.
In the case of `CSc1nc(NN)n2nccc2n1`, the survivor count (T/C endpoint: median survival time, dose: 200.0 mg/kg/injection, schedule: Q01DX005 (ip), vehicle: saline) is reported as 1 of 6.
With `Nc1ncnc2c1c1c(=S)nc[nH]c1n2C1OC(CO)C(O)C1O` (stereo unspecified) the T/C (T/C endpoint: mean survival time, dose: 12.5 mg/kg/injection, schedule: Q01DX005 (ip), vehicle: water) was 125 % of control, the T/C (T/C endpoint: mean survival time, dose: 25.0 mg/kg/injection, schedule: Q01DX005 (ip), vehicle: water) was 125 % of control and the T/C (T/C endpoint: mean survival time, dose: 50.0 mg/kg/injection, schedule: Q01DX005 (ip), vehicle: water) was 130 % of control. For the same compound, the T/C (T/C endpoint: mean survival time, dose: 100.0 mg/kg/injection, schedule: Q01DX005 (ip), vehicle: water) was 138 % of control [4 of 6 alive] and the survivor count (T/C endpoint: mean survival time, dose: 200.0 mg/kg/injection, schedule: Q01DX005 (ip), vehicle: water) was 1 of 6.
`CCCN(CCC)N=Nc1ccccc1` was tested, and the survivor count [1] was 0 of 6.
With `CCCCCCCCCCC(N)P(=O)(O)O` (stereo unspecified) the survivor count [3] was 4 of 6.
With `Nc1nc(-c2ccccc2)cs1` the survivor count [4] was 0 of 6 and the survivor count [7] was 0 of 6.
For `O=Cc1ccc(N=Nc2c(S(=O)(=O)O)cc3cc(S(=O)(=O)O)cc(O)c3c2O)cc1`, the survivor count [4] was 3 of 6 and the survivor count [5] was 3 of 6.
With `CN(C)C(=O)OC1CCCC1[N+](C)(C)CCCCCCCC[N+](C)(C)C1CCCC1OC(=O)N(C)C` (stereo unspecified) the survivor count (T/C endpoint: mean survival time, dose: 1.25 mg/kg/injection, schedule: Q04DX003 (ip), vehicle: saline) was 5 of 6, the survivor count (T/C endpoint: mean survival time, dose: 1.57 mg/kg/injection, schedule: Q01DX009 (iv), vehicle: methylcellulose (MC)) was 2 of 6 and the survivor count (T/C endpoint: mean survival time, dose: 3.13 mg/kg/injection, schedule: Q01DX009 (iv), vehicle: methylcellulose (MC)) was 0 of 6. The survivor count (T/C endpoint: mean survival time, dose: 6.25 mg/kg/injection, schedule: Q01DX009 (iv), vehicle: methylcellulose (MC)) was 0 of 6.
`O=C(O)C(=O)C(O)C(O)C(O)CO.O=C(O)C(=O)C(O)C(O)C(O)CO.[NH-]C1CCCCC1[NH-].[Pt+2]` (stereo unspecified) was tested, and the T/C (T/C endpoint: median survival time, dose: 12.5 mg/kg/injection, schedule: Q04DX003 (ip), vehicle: saline) was 128 % of control, the T/C (T/C endpoint: median survival time, dose: 25.0 mg/kg/injection, schedule: Q04DX003 (ip), vehicle: saline) was 137 and 138 % of control and the survivor count (T/C endpoint: median survival time, dose: 200.0 mg/kg/injection, schedule: Q04DX003 (ip), vehicle: saline) was 5 of 6.
For `c1cc2c(c(NC3=NCCN3)c1)CCCC2`, the survivor count [3] was 1 of 6, the survivor count [4] was 0 of 6 and the survivor count [7] was 0 of 6.
With `CCCC[N+](CC)(CC)CCCNC1=CC(=O)C(NCCC[N+](CC)(CC)CCCC)=CC1=O` the survivor count (T/C endpoint: mean survival time, dose: 100.0 mg/kg/injection, schedule: Q04DX002 (ip), vehicle: saline) was 0 of 3, the survivor count [2] was 0 of 3 and the survivor count (T/C endpoint: mean survival time, dose: 400.0 mg/kg/injection, schedule: Q04DX002 (ip), vehicle: saline) was 0 of 3.
With `CC(C)(C)c1cc2c3c(c1)Oc1cc(C(C)(C)C)cc4c1C3(O)c1c(cc(C(C)(C)C)cc1O4)O2` the survivor count (T/C endpoint: median survival time, dose: 25.0 mg/kg/injection, schedule: Q01DX009 (ip), vehicle: Klucel (hydroxypropylcellulose) (HPC)) was 1 of 6 and the survivor count (T/C endpoint: median survival time, dose: 50.0 mg/kg/injection, schedule: Q01DX009 (ip), vehicle: Klucel (hydroxypropylcellulose) (HPC)) was 0 of 6.
With `CN(CCC#N)Cc1cc(C(C)(C)C)cc(-c2ccccc2)c1O` the survivor count [5] was 6 of 6.
For `NC(=O)C[P+](c1ccccc1)(c1ccccc1)c1ccccc1`, the survivor count [4] was 0 of 3 and the survivor count [7] was 0 of 3.
For `C#CCOCC(O)C[As](=O)(O)c1ccc(Cl)cc1` (stereo unspecified), the survivor count (T/C endpoint: mean survival time, dose: 25.0 mg/kg/injection, schedule: Q01DX001 (ip), vehicle: saline with Tween-80) was 1 of 6, the survivor count (T/C endpoint: mean survival time, dose: 50.0 mg/kg/injection, schedule: Q01DX001 (ip), vehicle: saline with Tween-80) was 0 of 6 and the survivor count (T/C endpoint: mean survival time, dose: 100.0 mg/kg/injection, schedule: Q01DX001 (ip), vehicle: saline with Tween-80) was 0 of 6.
With `CCCCCCCCCCCCCCCC[N+]1([O-])CCOCC1` the survivor count (T/C endpoint: mean survival time, dose: 100.0 mg/kg/injection, schedule: Q01DX009 (ip), vehicle: saline) was 0 of 6, the survivor count (T/C endpoint: mean survival time, dose: 200.0 mg/kg/injection, schedule: Q01DX009 (ip), vehicle: saline) was 0 of 6 and the survivor count (T/C endpoint: mean survival time, dose: 400.0 mg/kg/injection, schedule: Q01DX009 (ip), vehicle: saline) was 0 of 6.
For `C[n+]1cccc(C(=O)NCCc2c[nH]c3ccccc23)c1`, the survivor count (T/C endpoint: mean survival time, dose: 150.0 mg/kg/injection, schedule: Q04DX003 (ip), vehicle: acetone) was 1 of 6.
For `CCOC(=O)/C(C#N)=C/NC(N)=O`, the survivor count (T/C endpoint: mean survival time, dose: 200.0 mg/kg/injection, schedule: Q01DX001 (ip), vehicle: Klucel (hydroxypropylcellulose) (HPC)) was 3 of 3.
